The target of this test is GFP-EIF3H truncation construct with the JAB/MP domain. In words: co-IP; HEK293 cells transfected with 2 µg Myc-OGT and GFP-EIF3H full-length or mutants; NP-40 lysis buffer; precipitated with GFP antibody, detected by Myc antibody.

No constants are given. Whether binding was seen depends on the method and setting. Binding seen in cells or lysates may run through a third protein. Binding can be weak; no strength is given. Where a sequence is shown, tags or fusion partners need not be part of it.

B1: Myc-OGT full-length (protein, UniProt O15294 1-1046)
chain: MASSVGNVADSTEPTKRMLSFQGLAELAHREYQAGDFEAAERHCMQLWRQEPDNTGVLLLLSSIHFQCRRLDRSAHFSTLAIKQNPLLAEAYSNLGNVYKERGQLQEAIEHYRHALRLKPDFIDGYINLAAALVAAGDMEGAVQAYVSALQYNPDLYCVRSDLGNLLKALGRLEEAKACYLKAIETQPNFAVAWSNLGCVFNAQGEIWLAIHHFEKAVTLDPNFLDAYINLGNVLKEARIFDRAVAAYLRALSLSPNHAVVHGNLACVYYEQGLIDLAIDTYRRAIELQPHFPDAYCNLANALKEKGSVAEAEDCYNTALRLCPTHADSLNNLANIKREQGNIEEAVRLYRKALEVFPEFAAAHSNLASVLQQQGKLQEALMHYKEAIRISPTFADAYSNMGNTLKEMQDVQGALQCYTRAIQINPAFADAHSNLASIHKDSGNIPEAIASYRTALKLKPDFPDAYCNLAHCLQIVCDWTDYDERMKKLVSIVADQLEKNRLPSVHPHHSMLYPLSHGFRKAIAERHGNLCLDKINVLHKPPYEHPKDLKLSDGRLRVGYVSSDFGNHPTSHLMQSIPGMHNPDKFEVFCYALSPDDGTNFRVKVMAEANHFIDLSQIPCNGKAADRIHQDGIHILVNMNGYTKGARNELFALRPAPIQAMWLGYPGTSGALFMDYIITDQETSPAEVAEQYSEKLAYMPHTFFIGDHANMFPHLKKKAVIDFKSNGHIYDNRIVLNGIDLKAFLDSLPDVKIVKMKCPDGGDNADSSNTALNMPVIPMNTIAEAVIEMINRGQIQITINGFSISNGLATTQINNKAATGEEVPRTIIVTTRSQYGLPEDAIVYCNFNQLYKIDPSTLQMWANILKRVPNSVLWLLRFPAVGEPNIQQYAQNMGLPQNRIIFSPVAPKEEHVRRGQLADVCLDTPLCNGHTTGMDVLWAGTPMVTMPGETLASRVAASQLTCLGCLELIAKNRQEYEDIAVKLGTDLEYLKKVRGKVWKQRISSPLFNTKQYTMELERLYLQMWEHYAAGNKPDHMIKPVEVTESA
Regarding B1, the binding entry was “binds”.
